From patent publication US7148329 (KATHOLIEKE UNIVERSITEIT NIJMEGEN, dated 2006)
Results are given in words; binding and its absence hold for the method and conditions named. For some assays here: Binding seen in cells or lysates may run through a third protein. Some results given as binding are weak or reduced against the parent protein; the word gives no strength. Sequences can lack the tags named with a protein.

Protein sequences, listed by entry. Tags and fused reporters are not part of them. Lines headed by an entry give the natural chain unless they say otherwise; changes in a name come on top.
UniProt Q9NNX6: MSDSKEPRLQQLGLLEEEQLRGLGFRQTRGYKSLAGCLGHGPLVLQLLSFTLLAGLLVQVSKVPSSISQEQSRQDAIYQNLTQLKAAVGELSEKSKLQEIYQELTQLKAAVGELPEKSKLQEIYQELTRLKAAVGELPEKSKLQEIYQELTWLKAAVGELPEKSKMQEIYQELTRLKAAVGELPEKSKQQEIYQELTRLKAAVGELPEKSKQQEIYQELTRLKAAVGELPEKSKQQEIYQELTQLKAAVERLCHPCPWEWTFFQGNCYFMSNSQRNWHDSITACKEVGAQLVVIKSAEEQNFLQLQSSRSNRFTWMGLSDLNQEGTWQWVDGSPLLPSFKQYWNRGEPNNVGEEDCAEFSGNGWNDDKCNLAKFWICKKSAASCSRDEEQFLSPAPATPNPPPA

Columns and labels:
[1] = biological target: T1, ICAM-3-Fc chimera (human) (UniProt P32942); test: ICAM-3Fc fluorescent bead adhesion to DC
T1 sequence (looked up): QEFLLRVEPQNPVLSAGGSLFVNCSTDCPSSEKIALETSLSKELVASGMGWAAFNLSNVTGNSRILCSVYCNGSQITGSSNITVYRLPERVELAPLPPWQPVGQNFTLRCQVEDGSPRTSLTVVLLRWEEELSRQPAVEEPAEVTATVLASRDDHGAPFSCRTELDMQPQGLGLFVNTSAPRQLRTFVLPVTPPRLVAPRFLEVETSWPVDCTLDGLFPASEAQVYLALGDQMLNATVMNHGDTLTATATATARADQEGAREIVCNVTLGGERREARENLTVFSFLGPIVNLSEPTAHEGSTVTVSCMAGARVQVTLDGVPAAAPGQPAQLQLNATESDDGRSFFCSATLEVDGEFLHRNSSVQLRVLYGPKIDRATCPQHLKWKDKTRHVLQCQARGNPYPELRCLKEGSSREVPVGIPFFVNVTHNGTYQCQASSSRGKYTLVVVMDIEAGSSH

[2] = biological target: T1, ICAM-3-Fc chimera (human); test: ICAM-3Fc fluorescent bead adhesion to COS7 transfectants
[3] = biological target: T1, ICAM-3-Fc chimera (human); test: pull-down from DC lysate with ICAM-3-Fc coated beads (results not shown)
[4] = biological target: T1, ICAM-3-Fc chimera (human); test: ICAM-3Fc bead adhesion to COS7-DC-SIGN (FIG. 4B)
[5] = biological target: T1, ICAM-3-Fc chimera (human); test: ICAM-3 bead adhesion to DC (FIG. 6A)

Measured: binding

DC-Specific ICAM-3 Grabbing Non-integrin (DC-SIGN) (from UniProt Q9NNX6 1-404) (receptor)
binds: all assays above
